# Laboratory results published in publication PMC7819943, “Rice protein-binding microarrays: a tool to detect cis-acting elements near promoter regions in rice”.
# This is one part of the list.
# Target: T1, OsSMF1 (Oryza sativa, UniProt Q6ZLB0 1-436)
# T1 sequence: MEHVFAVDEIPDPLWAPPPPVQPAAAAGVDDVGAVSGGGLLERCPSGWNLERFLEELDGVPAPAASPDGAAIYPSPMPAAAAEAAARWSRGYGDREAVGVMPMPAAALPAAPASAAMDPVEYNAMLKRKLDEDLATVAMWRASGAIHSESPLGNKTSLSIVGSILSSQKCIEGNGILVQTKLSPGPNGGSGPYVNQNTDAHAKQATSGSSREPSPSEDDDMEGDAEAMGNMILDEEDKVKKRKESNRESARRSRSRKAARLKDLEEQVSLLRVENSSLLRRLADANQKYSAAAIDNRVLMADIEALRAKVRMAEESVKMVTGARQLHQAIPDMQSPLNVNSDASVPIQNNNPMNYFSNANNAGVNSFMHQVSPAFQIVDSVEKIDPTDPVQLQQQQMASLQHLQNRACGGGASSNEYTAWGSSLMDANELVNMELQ
# Assay: protein-binding microarray (RPBM); PBS, 2% BSA, 51.3 ng/ul salmon testes DNA, 50 uM zinc acetate, 200 nM TF, 25 C, 1 h; high values mean tight binding
# Settings: protein: recombinant; tags: N-terminal polyhistidine and DsRed monomer fusion (pET32a); chain copies: 2; label: CyDye5-dUTP incorporated in the synthesized complementary strand; 3' TTTTT single-stranded linker to array surface; dsDNA, one strand shown
# Procedure, shortened: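 Binding signal here means per-feature fluorescence intensity in arbitrary units. The values were read on an Axon 4000B scanner after a custom Agilent array, double-stranded by primer extension with Cy5-dUTP, was incubated with 200 nM protein at 25 °C for 1 h in PBS with 2% BSA, salmon testes DNA and 50 µM zinc acetate, then washed. The proteins were transcription factors with an N-terminal polyhistidine tag and DsRed, expressed in E. coli BL21-CodonPlus and purified on Ni–NTA.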
row,Sequence,binding signal
1,TCCCGAACGAAAATCGGGGCGTTACACGTACCCATTGACACGGAGTCACCTAGTGCAG,3860 fluorescence intensity (a.u.)
2,CCTTGCTGTCATCTTACGTGCCCGTCCTAGCCTCTGACGACGGAGTCACCTAGTGCAG,5220 fluorescence intensity (a.u.)
3,CCCACATGTCAGCCTCACTCATCATCGGGTCCCGCATCACCGGAGTCACCTAGTGCAG,3500 fluorescence intensity (a.u.)
4,AAAATTATTAACTTCTTGTTTCGATCACCCTAATAAATAGCGGAGTCACCTAGTGCAG,41000 fluorescence intensity (a.u.)
5,TCCGATGGATCCTTTTGTTGCGTTGTTGTCAACATTGCCACGGAGTCACCTAGTGCAG,4500 fluorescence intensity (a.u.)
6,ACTTGCCCAACACATGAGCCTACGTGTAACATACTAGATTCGGAGTCACCTAGTGCAG,4780 fluorescence intensity (a.u.)
7,CTACTTTATCCAAGCCTCAGCTGATGAAGAGGTTCAGAGACGGAGTCACCTAGTGCAG,3710 fluorescence intensity (a.u.)
8,AACAACTCACTTGTTGACAAAGCAAGCCCTACAGGTCACTCGGAGTCACCTAGTGCAG,5780 fluorescence intensity (a.u.)
9,CATGACTGCATCGATCTATTCAACAGCTATAAATCCGAGGCGGAGTCACCTAGTGCAG,3250 fluorescence intensity (a.u.)
10,AAAATGGGTAATATTTCCACTTGGGGCCAAACCTGAAACACGGAGTCACCTAGTGCAG,3170 fluorescence intensity (a.u.)
11,GCGTGCGTGTGCGTGTCCACCCTGATCGCCGTTGGATCTCCGGAGTCACCTAGTGCAG,4190 fluorescence intensity (a.u.)
12,TGGATTCCTTCTCGCTCCCTCTCCACGTCGCCTATAAATCCGGAGTCACCTAGTGCAG,6960 fluorescence intensity (a.u.)
13,AGCAGCTGACGTTCGGAAGCTACTGACTGACAAAGTTCCACGGAGTCACCTAGTGCAG,3560 fluorescence intensity (a.u.)
14,TGATCCTGCTGTCGAACGTGACGTGGCTGCTCTGGTCCATCGGAGTCACCTAGTGCAG,27400 fluorescence intensity (a.u.)
15,GAGGTGACGAGTTTTACGACGCGCTTCTCGTTCGTCATCACGGAGTCACCTAGTGCAG,4190 fluorescence intensity (a.u.)
16,CGTTGTTCTGCTTAGTACTGGTTGGAAAGGTGACAAAGATCGGAGTCACCTAGTGCAG,3380 fluorescence intensity (a.u.)
17,CCTCTCCATCGCCGCATTGCTCGCCACCCCGACGACGACGCGGAGTCACCTAGTGCAG,3170 fluorescence intensity (a.u.)
18,ACCGCCATGTAGGTGCCACGTCATCGCCACGTGGAACGAACGGAGTCACCTAGTGCAG,32700 fluorescence intensity (a.u.)
19,CCCCACCACCTCATCGATCCGCGCCACCACCCAACCCACCCGGAGTCACCTAGTGCAG,4250 fluorescence intensity (a.u.)
20,CCATACCCGTCCGTGTCACGGAGACCGCCACCGACCCCACCGGAGTCACCTAGTGCAG,3380 fluorescence intensity (a.u.)
21,GAGAAAGGGTGAGGAGGAGAGAGGGTGATGACGTGGCCAGCGGAGTCACCTAGTGCAG,24400 fluorescence intensity (a.u.)

# Reformatted bar-delimited: entries from further up
row | Sequence | binding signal
1 | TCCCGAACGAAAATCGGGGCGTTACACGTACCCATTGACACGGAGTCACCTAGTGCAG | 3860 fluorescence intensity (a.u.)
2 | CCTTGCTGTCATCTTACGTGCCCGTCCTAGCCTCTGACGACGGAGTCACCTAGTGCAG | 5220 fluorescence intensity (a.u.)
3 | CCCACATGTCAGCCTCACTCATCATCGGGTCCCGCATCACCGGAGTCACCTAGTGCAG | 3500 fluorescence intensity (a.u.)

# Remaining list, next part

row,Sequence,binding signal
1,TAGCTTGGGAACTGCTAGTTGCAGTGGATCCACCTGGGCACGGAGTCACCTAGTGCAG,3580 fluorescence intensity (a.u.)
2,TTTTCTGGGGTTCACATCGTTTATCATGATGACACTACCACGGAGTCACCTAGTGCAG,4940 fluorescence intensity (a.u.)
3,GGACATAATCCCTGCGGTTCCATAATTCTTGACGTCCTTACGGAGTCACCTAGTGCAG,3400 fluorescence intensity (a.u.)
4,GGAGGCTAACATGTGGGGCCCACGTGAGTCCCACGCTTACCGGAGTCACCTAGTGCAG,4070 fluorescence intensity (a.u.)
5,ATAGCATCCAATTAGATTGTTGACATCCGGTTGAATAGAACGGAGTCACCTAGTGCAG,3290 fluorescence intensity (a.u.)
6,GGTGGAGACGCCGGAGAACAGTCAGCTTGGAGGCCGTGCGCGGAGTCACCTAGTGCAG,3170 fluorescence intensity (a.u.)
7,GAAGAATCGGCCCAACGACCAAGAGGGAGTCAAAATAGACCGGAGTCACCTAGTGCAG,22600 fluorescence intensity (a.u.)
8,TGATGCTACTTGTGCAATACTGCAGTTTACACTTAAATTGCGGAGTCACCTAGTGCAG,3350 fluorescence intensity (a.u.)
9,CGAAAGTTATGGGCTTCAGCTTCACTGTACATTGGGTATGCGGAGTCACCTAGTGCAG,3520 fluorescence intensity (a.u.)
10,GACGGCGGTGCACGTTGGCCAACGTGCCCAGACGCTTCGACGGAGTCACCTAGTGCAG,3180 fluorescence intensity (a.u.)
11,GCGCGGCAGTGGATGTGGTTCGCGCCGCGTGGCGGGCCATCGGAGTCACCTAGTGCAG,6120 fluorescence intensity (a.u.)
12,ACCGTCGTCAGCAACGCCGCTACTGCCACTGCAATTGCCGCGGAGTCACCTAGTGCAG,3540 fluorescence intensity (a.u.)
13,GGAAATAGAGAAGAGGCTGACGTGGCATGCTGACATGTGGCGGAGTCACCTAGTGCAG,17300 fluorescence intensity (a.u.)
14,ATTTCACGCCGATCTGTGATATATCCGAGTCCTAGTGGACCGGAGTCACCTAGTGCAG,3150 fluorescence intensity (a.u.)
15,CGCGGCAGATCCGCTGGTTGTGGCGGCGTCAGCGGTAGCCCGGAGTCACCTAGTGCAG,4030 fluorescence intensity (a.u.)
16,GGGCATTGTGGAACCAGAGTTGATGACGAACCTATGTAGTCGGAGTCACCTAGTGCAG,4280 fluorescence intensity (a.u.)
17,ATGTTAGAACACCTTCCTCTCCTGTATCCGTGGAGCAGCTCGGAGTCACCTAGTGCAG,3550 fluorescence intensity (a.u.)
18,CATTGATGAACTTGACTTAATTAACGTGCACGTACCTTAACGGAGTCACCTAGTGCAG,3440 fluorescence intensity (a.u.)
19,AGGGGAAGCAGTTTGCCAAATTTTACGGAGCAAACTCAAACGGAGTCACCTAGTGCAG,23800 fluorescence intensity (a.u.)
20,GTGGCGCGCTACAACGTGCCGCTCTACGTGACGTGGGAGACGGAGTCACCTAGTGCAG,7560 fluorescence intensity (a.u.)
21,ATGGGTTGTGCTGTTCTAGCTTCTATACGTGTCGAATCATCGGAGTCACCTAGTGCAG,5280 fluorescence intensity (a.u.)
